Test results from patent US20150216794A1, “METHODS OF TREATING PAIN ASSOCIATED WITH OSTEOARTHRITIS OF A JOINT WITH A TOPICAL FORMULATION OF A SPIRO-OXINDOLE COMPOUND” (IVAX International GmbH, priority 2014, published 2015).
“And” between values parts separate entries of the source, which are not always exact repeats. Equal entries are not always repeated. The source gives many values for each of these; only a part stands here.

Assay: domestic pig joint penetration study: concentration in plasma
Format: in vivo
Protocol: This study was conducted to evaluate the joint penetration, systemic plasma exposure and tissue distribution of the spiro-oxindole compound in domestic pigs following topical administration of a pharmaceutical composition utilized in the methods of the invention. Fifteen female pigs were used in this study with three pigs in each group. Beginning on Day 1, a pharmaceutical composition of the invention was topically applied to the left radiocarpal joint (carpus) and tibiotarsal joint (hock) twice daily (bid) for 17 days (34 applications) for Groups 1-4 and once daily (qd) for 17 days (17 applications) for Group 5. Pre-dose blood samples (prior to morning dosing) was collected on Days 2, 7, 10, 14 and 17. A full pharmacokinetic sampling was performed on Day 17 (post am dosing) at the following time points: 1, 2, 4, 8 and 12 hr. On the day of necropsy, Day 18, blood was collected prior to euthanasia, each pig was humanely euthanized and dorsal skin and muscle, liver, kidney, heart, lung, brain, intestine, fat, ovaries, urinary bladder, sciatic nerve, and skin, muscle, synovial membrane, and synovial fluid from all 4 joints (2 treated, left carpus and hock, and 2 untreated, right carpus and hock) was collected.
The dose volume (μL/cm^2) for the test pharmaceutical compositions was 3.0 μL/cm^2 for Groups 1, 2, 3 and 5 and 1.0 μL/cm^2 for Group 4.
Approximately 2 mL of whole blood was collected prior to the morning dose administration on Days 2, 7, 10, 14 and 17. A full pharmacokinetic profile sampling was performed on Day 17 after the morning dose administration at the following time points: 1, 2, 4, 8 and 12 hr. On the day of necropsy, Day 18, blood was collected prior to euthanasia.

concentration in plasma, individual animals (G2 (#4-#6): 4% composition, 3.0 μL/cm^2 bid, Day 18): 3.29 ng/mL
concentration in plasma, individual animals (G3 (#7-#9): 8% composition, 3.0 μL/cm^2 bid, Day 2 Before dosing): 1.47 ng/mL and 1.21 ng/mL and 2.36 ng/mL
concentration in plasma, individual animals (G3 (#7-#9): 8% composition, 3.0 μL/cm^2 bid, Day 7 Before dosing): 1.50 ng/mL and 4.40 ng/mL and 0.00 ng/mL
concentration in plasma, individual animals (G3 (#7-#9): 8% composition, 3.0 μL/cm^2 bid, Day 10 Before dosing): 5.48 ng/mL and 5.13 ng/mL and 3.64 ng/mL
concentration in plasma, individual animals (G3 (#7-#9): 8% composition, 3.0 μL/cm^2 bid, Day 14 Before dosing): 2.19 ng/mL and 4.81 ng/mL and 6.86 ng/mL
concentration in plasma, individual animals (G3 (#7-#9): 8% composition, 3.0 μL/cm^2 bid, Day 17 1 hour after dosing): 0.98 ng/mL and 9.03 ng/mL and 7.37 ng/mL
concentration in plasma, individual animals (G3 (#7-#9): 8% composition, 3.0 μL/cm^2 bid, Day 17 2 hour after dosing): 2.37 ng/mL and 4.47 ng/mL and 5.31 ng/mL
concentration in plasma, individual animals (G3 (#7-#9): 8% composition, 3.0 μL/cm^2 bid, Day 17 4 hour after dosing): 1.85 ng/mL and 4.29 ng/mL and 6.23 ng/mL
concentration in plasma, individual animals (G3 (#7-#9): 8% composition, 3.0 μL/cm^2 bid, Day 17 8 hour after dosing): 1.65 ng/mL and 3.36 ng/mL and 3.43 ng/mL
concentration in plasma, individual animals (G3 (#7-#9): 8% composition, 3.0 μL/cm^2 bid, Day 18): 2.76 ng/mL and 6.10 ng/mL and 4.13 ng/mL
concentration in plasma, individual animals (G4 (#10-#12): 8% composition, 1.0 μL/cm^2 bid, Day 2 Before dosing): 0.24 ng/mL and 0.71 ng/mL and 1.34 ng/mL
concentration in plasma, individual animals (G4 (#10-#12): 8% composition, 1.0 μL/cm^2 bid, Day 7 Before dosing): 4.82 ng/mL and 1.89 ng/mL and 0.99 ng/mL
concentration in plasma, individual animals (G4 (#10-#12): 8% composition, 1.0 μL/cm^2 bid, Day 10 Before dosing): 1.10 ng/mL and 1.24 ng/mL and 1.88 ng/mL
concentration in plasma, individual animals (G4 (#10-#12): 8% composition, 1.0 μL/cm^2 bid, Day 14 Before dosing): 1.90 ng/mL and 2.63 ng/mL and 2.14 ng/mL
concentration in plasma, individual animals (G4 (#10-#12): 8% composition, 1.0 μL/cm^2 bid, Day 17 1 hour after dosing): 2.62 ng/mL and 5.22 ng/mL and 1.01 ng/mL
concentration in plasma, individual animals (G4 (#10-#12): 8% composition, 1.0 μL/cm^2 bid, Day 17 2 hour after dosing): 3.51 ng/mL and 3.57 ng/mL and 1.94 ng/mL
concentration in plasma, individual animals (G4 (#10-#12): 8% composition, 1.0 μL/cm^2 bid, Day 17 4 hour after dosing): 2.27 ng/mL and 2.03 ng/mL and 2.74 ng/mL
concentration in plasma, individual animals (G4 (#10-#12): 8% composition, 1.0 μL/cm^2 bid, Day 17 8 hour after dosing): 1.29 ng/mL and 2.15 ng/mL and 2.83 ng/mL
concentration in plasma, individual animals (G4 (#10-#12): 8% composition, 1.0 μL/cm^2 bid, Day 17 Before dosing): 1.12 ng/mL and 0.72 ng/mL and 1.41 ng/mL
concentration in plasma, individual animals (G4 (#10-#12): 8% composition, 1.0 μL/cm^2 bid, Day 18): 1.09 ng/mL and 2.36 ng/mL and 1.34 ng/mL
concentration in plasma, individual animals (G5 (#13-#15): 8% composition, 3.0 μL/cm^2 qd, Day 2 Before dosing): 2.68 ng/mL and 1.26 ng/mL and 0.43 ng/mL
concentration in plasma, individual animals (G5 (#13-#15): 8% composition, 3.0 μL/cm^2 qd, Day 7 Before dosing): 3.34 ng/mL and 0.92 ng/mL and 1.29 ng/mL
concentration in plasma, individual animals (G5 (#13-#15): 8% composition, 3.0 μL/cm^2 qd, Day 10 Before dosing): 1.14 ng/mL and 1.87 ng/mL and 1.07 ng/mL
concentration in plasma, individual animals (G5 (#13-#15): 8% composition, 3.0 μL/cm^2 qd, Day 14 Before dosing): 2.77 ng/mL and 2.74 ng/mL and 1.53 ng/mL
concentration in plasma, individual animals (G5 (#13-#15): 8% composition, 3.0 μL/cm^2 qd, Day 17 1 hour after dosing): 3.49 ng/mL and 0.67 ng/mL and 2.49 ng/mL
concentration in plasma, individual animals (G5 (#13-#15): 8% composition, 3.0 μL/cm^2 qd, Day 17 2 hour after dosing): 3.53 ng/mL and 1.65 ng/mL and 2.56 ng/mL
concentration in plasma, individual animals (G5 (#13-#15): 8% composition, 3.0 μL/cm^2 qd, Day 17 4 hour after dosing): 3.70 ng/mL and 1.85 ng/mL and 1.28 ng/mL
concentration in plasma, individual animals (G5 (#13-#15): 8% composition, 3.0 μL/cm^2 qd, Day 17 8 hour after dosing): 4.21 ng/mL and 7.22 ng/mL and 1.00 ng/mL
concentration in plasma, individual animals (G5 (#13-#15): 8% composition, 3.0 μL/cm^2 qd, Day 17 Before dosing): 2.17 ng/mL and 0.63 ng/mL and 0.99 ng/mL
concentration in plasma, individual animals (G5 (#13-#15): 8% composition, 3.0 μL/cm^2 qd, Day 18): 2.10 ng/mL and 0.96 ng/mL and 4.94 ng/mL
Compound: O=C1N(Cc2ccc(C(F)(F)F)o2)c2ccccc2[C@]12COc1cc3c(cc12)OCO3 [spiro-oxindole compound, (S)-1′-{[5-(trifluoromethyl)furan-2-yl]methyl}spiro[furo[2,3-f][1,3]benzodioxole-7,3′-indol]-2′(1′H)one]
concentration in plasma, individual animals (G3 (#7-#9): 8% composition, 3.0 μL/cm^2 bid, Day 17 12 hour after dosing): 27.61 ng/mL and 16.89 ng/mL and 102.48 ng/mL
concentration in plasma, individual animals (G3 (#7-#9): 8% composition, 3.0 μL/cm^2 bid, Day 17 Before dosing): 14.43 ng/mL and 2.45 ng/mL and 3.90 ng/mL
concentration in plasma, individual animals (G4 (#10-#12): 8% composition, 1.0 μL/cm^2 bid, Day 17 12 hour after dosing): 9.98 ng/mL and 15.16 ng/mL and 24.37 ng/mL
concentration in plasma, individual animals (G5 (#13-#15): 8% composition, 3.0 μL/cm^2 qd, Day 17 12 hour after dosing): 10.60 ng/mL and 4.97 ng/mL and 8.47 ng/mL
